# Laboratory results published in patent US20130143227A1 (University of Texas, published 2013).
# These are yes or no findings as the source states them, for the method shown. Binding seen in cells or lysates may run through a third protein. Some binding calls cover weakened binding; strength is not graded here. Where a sequence is shown, tags or fusion partners need not be part of it.
# T1: Myc-LGR5ECD (human) (UniProt O75473)
# T1 sequence: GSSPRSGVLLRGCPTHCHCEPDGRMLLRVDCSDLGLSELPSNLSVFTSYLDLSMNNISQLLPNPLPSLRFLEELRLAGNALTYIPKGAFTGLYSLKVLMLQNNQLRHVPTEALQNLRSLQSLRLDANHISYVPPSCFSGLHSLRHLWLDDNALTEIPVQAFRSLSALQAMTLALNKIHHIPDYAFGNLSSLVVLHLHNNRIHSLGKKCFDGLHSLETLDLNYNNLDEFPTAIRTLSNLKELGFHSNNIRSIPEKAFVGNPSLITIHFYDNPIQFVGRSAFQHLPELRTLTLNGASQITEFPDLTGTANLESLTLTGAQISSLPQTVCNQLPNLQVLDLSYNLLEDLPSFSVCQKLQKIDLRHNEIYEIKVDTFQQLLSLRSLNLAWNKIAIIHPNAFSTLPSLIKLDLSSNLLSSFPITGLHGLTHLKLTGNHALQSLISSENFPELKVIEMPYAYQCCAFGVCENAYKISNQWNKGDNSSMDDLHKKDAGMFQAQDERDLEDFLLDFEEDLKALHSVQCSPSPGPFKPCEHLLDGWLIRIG
# B1: mRSPO1-Fc (Fc fusion)
# chain: DYPYDVPDYAGAQPAWTHIAVGSRGIKGKRQRRISAEGSQACAKGCELCSEVNGCLKCSPKLFILLERNDIRQVGVCLPSCPPGYFDARNPDMNKCIKCKIEHCEACFSHNFCTKCQEGLYLHKGRCYPACPEGSTAANSTMECGSPAQCEMSEWSPWGPCSKKRKLCGFRKGSEERTRRVLHAPGGDHTTCSDTKETRKCTVRRTPCPEGQKRRKGGQGRRENANRHPARKNSKEPGSNSRRHKGQQQPQPGTTGPLTSVGPTWAQRRLEPRGPTIKPCPPCKCPAPNLLGGPSVFIFPPKIKDVLMISLSPIVTCVVVDVSEDDPDVQISWFVNNVEVHTAQTQTHREDYNSTLRVVSALPIQHQDWMSGKEFKCKVNNKDLPAPIERTISKPKGSVRAPQVYVLPPPEEEMTKKQVTLTCMVTDFMPEDIYVEWTNNGKTELNYKNTEPVLDSDGSYFMYSKLRVEKKNWVERNSYSCSVVHEGLHNHHTTKSFSRTPGK
# Experiments:
# Myc-LGR5ECD (human) [1] = molecular target: T1, Myc-LGR5ECD (human); assay: pull-down with protein A/G-agarose beads, immunoblot (legend of FIG. 4A)
# Myc-LGR5ECD (human) [2] = molecular target: T1, Myc-LGR5ECD (human); assay: pull-down with protein A/G-agarose beads, immunoblot
binder,measurement,setting,value
B1,binding,Myc-LGR5ECD (human) [1],binds
same,binding,Myc-LGR5ECD (human) [2],binds
